US20120264685A1 (priority 2009, published 2012)
The name of at least one read-out is uncertain. Where a SMILES comes first, the peptide text is derived from it. [ ]: non-standard residue; d: D form. ξ: configuration not given here. ξαMeBip(2'-Et,4'-OMe) = CCc1cc(OC)ccc1-c1ccc(CC(C)(N)C(=O)O)cc1; ξBip(2'-Et-4'-OMe) = CCc1cc(OC)ccc1-c1ccc(CC(N)C(=O)O)cc1; ξαMePhe(2,6-F2) = CC(N)(Cc1c(F)cccc1F)C(=O)O; ξαMe(hhPhe) = CC(N)(CCCc1ccccc1)C(=O)O; ξαMePhe(2-F) = CC(N)(Cc1ccccc1F)C(=O)O; ξhhPhe = NC(CCCc1ccccc1)C(=O)O; ξαMeD = CC(N)(CC(=O)O)C(=O)O; ξαMeP = CC1(C(=O)O)CCCN1; ξαMeS = CC(N)(CO)C(=O)O

Chains of the proteins cited; added tags and fusions are not shown.
UniProt P27487, whole entry, species assumed: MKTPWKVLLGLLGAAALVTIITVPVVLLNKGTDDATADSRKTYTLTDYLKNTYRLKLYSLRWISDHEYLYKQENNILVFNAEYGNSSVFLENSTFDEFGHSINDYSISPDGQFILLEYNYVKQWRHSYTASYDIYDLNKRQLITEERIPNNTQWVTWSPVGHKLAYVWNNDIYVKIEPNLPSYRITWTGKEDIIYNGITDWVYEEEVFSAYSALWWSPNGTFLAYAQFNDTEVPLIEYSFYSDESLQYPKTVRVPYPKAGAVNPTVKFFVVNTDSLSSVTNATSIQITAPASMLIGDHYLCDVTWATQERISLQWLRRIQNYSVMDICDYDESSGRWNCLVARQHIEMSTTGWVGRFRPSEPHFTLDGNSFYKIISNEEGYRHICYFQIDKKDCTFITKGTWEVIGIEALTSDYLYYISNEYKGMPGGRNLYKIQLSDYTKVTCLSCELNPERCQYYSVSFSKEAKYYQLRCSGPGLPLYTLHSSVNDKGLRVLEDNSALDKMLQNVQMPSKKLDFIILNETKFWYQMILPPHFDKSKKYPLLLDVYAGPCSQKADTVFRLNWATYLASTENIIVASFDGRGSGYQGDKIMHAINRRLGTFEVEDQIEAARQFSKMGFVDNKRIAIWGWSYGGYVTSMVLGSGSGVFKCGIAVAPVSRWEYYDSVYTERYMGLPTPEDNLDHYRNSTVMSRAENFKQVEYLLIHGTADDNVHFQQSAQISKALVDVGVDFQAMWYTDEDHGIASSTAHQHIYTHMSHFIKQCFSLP

Biological target: DPP IV enzyme (Homo sapiens, UniProt P27487)
Test: Stability against DPP IV enzyme
Type: in vitro ADME
Details: 2 μM, 37° C.
Method: Different peptidomimetics (final concentration 2 μM) were incubated with either DPP IV (1:25 mU) or pooled human plasma (7.5 μL) or simulated gastric fluid (pH 1.5; composition HCl, NaCl and Pepsin) or simulated intestinal fluid (pH 7.5) or human liver microsomes, for 0, 2, 4, 6, 12 and 24 h (37° C.; 50 mM triethanolamine-HCl buffer; pH 7.8). […] Reactions were terminated by the addition of TFA/H2O ([…], 10% (v/v)). The reaction products were then applied to a Vydac C18 analytical column (4.6×250-mm) and the major degradation fragment separated from intact peptidomimetic. The column was equilibrated with TFA/H20, at a flow rate of 1 mL/min. Using 0.1% (v/v) TFA in 70% acetonitrile/H2O, the concentration of acetonitrile in the eluting solvent was raised from 0% to 28% over 10 min and from 28% to 42% over 30 min. The absorbance was monitored at 206 nm using UV detector and peaks were collected manually prior to ESI-MS analysis. Area under the curve was measured for test peptidomimetics and their metabolites and percentage degradation were calculated at each time point over a period of 24 h.

Structure (SMILES)	half-life (t1/2) with DPP-IV enzyme
CCc1cc(OC)ccc1-c1ccc(CC(C)(NC(=O)[C@H](CC(=O)O)NC(=O)C(C)(CO)NC(=O)[C@@H](NC(=O)C(C)(Cc2c(F)cccc2F)NC(=O)[C@@H](NC(=O)CNC(=O)[C@H](CCC(N)=O)NC(=O)[C@H](C)NC(=O)[C@H](Cc2c[nH]cn2)NC(=O)[C@@H](N)C(C)C)[C@@H](C)O)[C@@H](C)O)C(=O)NC(CCCc2ccccc2)C(N)=O)cc1 (stereo partly shown) [compound 50] (H-VHAQGT[ξαMePhe(2,6-F2)]T[ξαMeS]D[ξαMeBip(2'-Et,4'-OMe)][ξhhPhe]-NH2)	(10) h
CCc1cc(OC)ccc1-c1ccc(CC(NC(=O)C(C)(CC(=O)O)NC(=O)C(C)(CO)NC(=O)[C@@H](NC(=O)[C@H](Cc2ccccc2)NC(=O)[C@@H](NC(=O)CNC(=O)[C@H](CCC(=O)O)NC(=O)[C@H](C)NC(=O)[C@H](Cc2c[nH]cn2)NC(=O)[C@@H](N)C(C)C)[C@@H](C)O)[C@@H](C)O)C(=O)NC(C)(CCCc2ccccc2)C(N)=O)cc1 (stereo partly shown) [compound 112] (H-VHAEGTFT[ξαMeS][ξαMeD][ξBip(2'-Et-4'-OMe)][ξαMe(hhPhe)]-NH2)	(10) h
CCc1cc(OC)ccc1-c1ccc(CC(C)(NC(=O)[C@H](CC(=O)O)NC(=O)[C@H](CO)NC(=O)[C@@H](NC(=O)[C@H](Cc2ccccc2)NC(=O)[C@@H](NC(=O)CNC(=O)[C@H](CCC(=O)O)NC(=O)C2(C)CCCN2C(=O)[C@H](Cc2c[nH]cn2)NC(=O)[C@@H](N)C(C)C)[C@@H](C)O)[C@@H](C)O)C(=O)NC(C)(CCCc2ccccc2)C(N)=O)cc1 (stereo partly shown) [compound 140] (H-VH[ξαMeP]EGTFTSD[ξαMeBip(2'-Et,4'-OMe)][ξαMe(hhPhe)]-NH2)	(10) h
CCc1cc(OC)ccc1-c1ccc(CC(C)(NC(=O)[C@H](CC(=O)O)NC(=O)C(C)(CO)NC(=O)[C@@H](NC(=O)C(C)(Cc2ccccc2F)NC(=O)[C@@H](NC(=O)CNC(=O)[C@H](CCC(N)=O)NC(=O)[C@H](CO)NC(=O)[C@H](Cc2c[nH]cn2)NC(=O)[C@@H](N)C(C)C)[C@@H](C)O)[C@@H](C)O)C(=O)NC(C)(CCCc2ccccc2)C(N)=O)cc1 (stereo partly shown) [compound 165] (H-VHSQGT[ξαMePhe(2-F)]T[ξαMeS]D[ξαMeBip(2'-Et,4'-OMe)][ξαMe(hhPhe)]-NH2)	(10) h
